PubChem BioAssay AID1259308 | NCATS, 2017
Screen: 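Candidate targets for better recombinant protein yield in mammalian cells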 (primary screen). Cells: human HEK293 embryonic kidney cells stably expressing firefly luciferase (HEK-CMV-Luc2-Hygro). Reagents: single siRNA against human genes, 0.8 pmol siRNA per well. Time to read-out: 72 h. Measurement: 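Luciferase light (ONE-Glo) measured on one replicate plate set and viability (CellTiter-Glo) on the other, scaled to a negative control siRNA, with robust z-scores and luciferase per cell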. Scale: total luciferase, z-score and total luciferase, % of control: higher = more reporter protein produced; luciferase per cell, z-score: higher = more reporter output per viable cell; viable cells, % of control: higher = more viable cells. Hit rule: 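An siRNA counts as active if its total luciferase robust z-score exceeds 3; genes with two or more such siRNAs out of three were retested with fresh siRNAs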. Meaning of the calls: active = raised luciferase; inactive = no rise.
The deposit covers about 59,000 reagents; this is an unselected part. About 1,510 of them (2.6%) were called active. 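Calls use total luciferase alone and ignore viability, so some active siRNAs may act by altering cell number.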 Reagents against one gene are numbered here.

no.	gene knocked down	reagent no.	total luciferase, z-score	total luciferase, % of control	luciferase per cell, z-score	viable cells, % of control	call
1	ZGPAT (GeneID 84619)	1	1.12	104	0.844	93.2	inactive
2	ZGPAT (GeneID 84619)	2	-1.16	58.9	-0.378	72.7	inactive
3	ZGPAT (GeneID 84619)	3	0.572	93.3	0.675	87.2	inactive
4	ARHGAP5 (GeneID 394)	1	-0.18	78.3	-0.895	111	inactive
5	ARHGAP5 (GeneID 394)	2	0.0241	82.4	-0.799	114	inactive
6	ARHGAP5 (GeneID 394)	3	0.357	89	0.373	90.1	inactive
7	PML (GeneID 5371)	1	2.07	123	1.42	94.7	inactive
8	PML (GeneID 5371)	2	-2.75	27.1	-3.92	85.1	inactive
9	PML (GeneID 5371)	3	-0.897	64.1	-1.42	104	inactive

Part of the list above, reformatted:
| gene knocked down | reagent no. | total luciferase, z-score | total luciferase, % of control | luciferase per cell, z-score | viable cells, % of control | call |
| --- | --- | --- | --- | --- | --- | --- |
| ARHGAP5 (GeneID 394) | 2 | 0.0241 | 82.4 | -0.799 | 114 | inactive |
| ARHGAP5 (GeneID 394) | 3 | 0.357 | 89 | 0.373 | 90.1 | inactive |
| PML (GeneID 5371) | 1 | 2.07 | 123 | 1.42 | 94.7 | inactive |
| PML (GeneID 5371) | 2 | -2.75 | 27.1 | -3.92 | 85.1 | inactive |

Continued.
no.	gene knocked down	reagent no.	total luciferase, z-score	total luciferase, % of control	luciferase per cell, z-score	viable cells, % of control	call
10	PATE4 (GeneID 399968)	1	-0.144	79	-0.0597	89.7	inactive
11	PATE4 (GeneID 399968)	2	-0.815	65.7	0.543	63.6	inactive
12	PATE4 (GeneID 399968)	3	0.495	91.7	0.322	94.2	inactive
13	MAP1A (GeneID 4130)	1	0.471	91.3	0.2	96.8	inactive
14	MAP1A (GeneID 4130)	2	-0.923	63.5	-0.938	90.9	inactive
15	MAP1A (GeneID 4130)	3	-2.11	40	-2.38	83.6	inactive
16	TSPAN15 (GeneID 23555)	1	0.185	85.6	0.252	89.5	inactive
17	TSPAN15 (GeneID 23555)	2	0.262	87.1	0.341	89	inactive
18	TSPAN15 (GeneID 23555)	3	1.91	120	1.35	93.8	inactive
19	HOPX (GeneID 84525)	1	0.397	89.8	0.621	85.2	inactive
20	HOPX (GeneID 84525)	2	-0.171	78.5	-0.267	94.1	inactive
21	HOPX (GeneID 84525)	3	-0.147	79	-0.361	97	inactive
22	TNPO2 (GeneID 30000)	1	0.578	93.4	0.473	92.1	inactive
23	TNPO2 (GeneID 30000)	2	-0.277	76.4	-0.326	93	inactive
24	TNPO2 (GeneID 30000)	3	0.866	99.1	-0.159	115	inactive
